Source: PubChem BioAssay AID1671190 (National Center for Advancing Translational Sciences (NCATS), 2021)
“And” between values parts separate entries of the source, which are not always exact repeats. Identical values can stand only once. About 6,100 (1.1%) of roughly 580,000 compounds were called active. The shares of active, inactive and inconclusive entries below differ from those in the screen. The call rests on the fitted dose curve; in most records, active means well fitted inhibition curve with a large enough effect; inconclusive means small, poorly fitted or top-dose-only effect, or another doubt; inactive means no such curve, though single readings can be large or run the other way. A potency beside an inconclusive call is a rough fit, not a confirmed value.

Chains of the proteins cited; added tags and fusions are not shown. Lines headed by an entry give the natural chain unless they say otherwise; changes in a name come on top.
UniProt P18054: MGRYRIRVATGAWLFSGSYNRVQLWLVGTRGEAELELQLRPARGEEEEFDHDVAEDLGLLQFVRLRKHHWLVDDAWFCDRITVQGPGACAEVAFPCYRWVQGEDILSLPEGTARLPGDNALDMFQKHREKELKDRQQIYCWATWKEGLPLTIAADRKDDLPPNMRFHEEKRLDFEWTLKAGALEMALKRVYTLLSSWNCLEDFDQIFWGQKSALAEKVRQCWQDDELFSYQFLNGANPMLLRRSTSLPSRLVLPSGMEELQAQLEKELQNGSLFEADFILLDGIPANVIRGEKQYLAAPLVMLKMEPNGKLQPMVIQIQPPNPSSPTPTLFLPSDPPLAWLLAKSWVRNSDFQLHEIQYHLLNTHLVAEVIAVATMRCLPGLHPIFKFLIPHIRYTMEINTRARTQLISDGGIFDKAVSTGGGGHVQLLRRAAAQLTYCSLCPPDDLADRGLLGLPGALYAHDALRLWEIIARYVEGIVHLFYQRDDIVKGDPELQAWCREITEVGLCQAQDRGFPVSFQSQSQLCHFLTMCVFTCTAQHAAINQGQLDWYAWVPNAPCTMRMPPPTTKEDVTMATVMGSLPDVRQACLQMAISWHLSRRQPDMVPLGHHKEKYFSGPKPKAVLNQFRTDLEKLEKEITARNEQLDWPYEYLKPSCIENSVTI

target: Polyunsaturated fatty acid lipoxygenase ALOX12 (Homo sapiens) (UniProt P18054); experiment: Primary qHTS assay for inhibitors of human arachidonate 12S-lipoxygenase (ALOX12): Round 2; conditions: purified 12hLO, xylenol orange hydroperoxide absorbance; series mostly up to 108 µM
How it was run: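 Purified human 12hLO at 150 nM in 25 mM Hepes, 0.01% Triton X-100, pH 7.0, preincubated 15 min at room temperature with compound. Reaction started with 40 uM arachidonic acid, 30 min at room temperature. Hydroperoxide measured by Fe-xylenol orange, 573/405 nm absorbance ratio.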
Potency means the concentration at half of the fitted maximal effect.

Row | SMILES | Potency
1 | Cc1cc(C)cc(NC(=O)COc2ncnc3ccccc23)c1 | inactive
2 | CCOC(=O)COn1c(=O)c(-c2ccc(C)cc2)[n+]([O-])c2ccccc21 | inconclusive: 0.562 µM [inhibitor, full curve, poor fit]
3 | Cc1ccc(NC(=O)c2cccs2)cc1[N+](=O)[O-] | inconclusive: 70.8 µM [inhibitor, partial curve, poor fit]
4 | CC1(C#N)c2ccccc2C(Br)=CN1C(=O)c1ccccc1 (stereo not drawn) | inconclusive: 89.1 µM [inhibitor, single point]
5 | CCOc1nc(NC(=O)NS(=O)(=O)Oc2ccccc2Cl)nc(-c2ccccc2)n1 | inconclusive: 35.5 µM [inhibitor, partial curve, poor fit] and inconclusive: 31.6 µM [inhibitor, partial curve, poor fit]
6 | COc1ccccc1C(=O)NC(=O)Nc1ccc(-n2nc(C(F)(F)F)cc2C(F)(F)F)cc1 | inconclusive: 141 µM [inhibitor, partial curve, poor fit]
7 | CC1=NN=C(c2ccccc2)C(c2c[nH]c3ccccc23)N1O (stereo not drawn) | inconclusive: 56.2 µM [inhibitor, partial curve, poor fit]
8 | COc1ccc(C2(O)CC3CCC(C2)N3c2cc(C)nc(-c3ccccc3)n2)cc1 (stereo not drawn) | inconclusive: 35.5 µM [inhibitor, partial curve, poor fit]
9 | CCOc1ccccc1CNC(c1ccccc1)c1ccccc1 | inconclusive: 39.8 µM [inhibitor, partial curve, poor fit]
10 | C[C@H](CO)N1C[C@H](C)[C@H](CN(C)C(=O)Nc2cccc(F)c2)OCc2cnnn2CCCC1=O | inconclusive: 112 µM [inhibitor, single point]
11 | CN(c1cccc(NC(=O)CN(c2ccc(F)cc2)S(C)(=O)=O)c1)S(C)(=O)=O | inactive
12 | CC(C)c1ccc(NC(=O)CN2C(=O)NC3(CCCCC3)C2=O)cc1 | inconclusive: 28.2 µM [inhibitor, full curve, poor fit]
13 | NCCCCN=C(N)N | inactive
14 | O=C(O)c1ccc(NC(=O)c2ccccc2NC(=O)c2cccc(Br)c2)cc1 | inconclusive: 100 µM [inhibitor, partial curve, poor fit]
15 | S=c1[nH]nc(-c2cc(-c3ccsc3)n[nH]2)n1-c1ccccc1 | active: 15.8 µM
16 | CCc1nc(CN(C)Cc2cc3n(n2)CCN(C(=O)N(C)C)C3)no1 | inconclusive: 39.8 µM [inhibitor, partial curve]
17 | CCN(CC(=O)Nc1cc(Cl)ccc1C)C(=O)C1CC1 | inactive
18 | COc1ccc(CN(C(=O)Cc2c[nH]c3ccccc23)C(C(=O)NC2CCCCC2)c2ccc(C)o2)cc1 (stereo not drawn) | inconclusive: 141 µM [inhibitor, partial curve, poor fit]
19 | CC1CCN(CCOCCOc2ccc(Br)cc2Cl)CC1 | inconclusive: 3.16 µM [inhibitor, full curve, poor fit]
20 | Cc1nc2cc(C(=O)O)ccc2n1-c1ccc(C(C)C)cc1 | inconclusive: 56.2 µM [inhibitor, partial curve, poor fit]
21 | CN(C(=O)c1cccc(NC(=O)Cc2ccc(NC(=O)C3CCCN(C(=O)CCc4ccccc4)C3)cc2)c1)C1CC1 (stereo not drawn) | inconclusive: 50.1 µM [inhibitor, partial curve, poor fit]

Row | SMILES | Potency
22 | CC1(C(=O)NS(=O)(=O)c2cccc(C#N)c2)CCN1C(=O)Cc1ccc(-c2ccccc2)cc1 (stereo not drawn) | inconclusive: 31.6 µM [inhibitor, partial curve, poor fit]
23 | CCCN(CCC(=O)Nc1cc(OC)cc(OC)c1)CC1CC1 | inconclusive: 28.2 µM [inhibitor, partial curve, poor fit]
24 | NC(=O)C1CCN(C(=O)C2CC(c3cccc(F)c3)=NO2)CC1 (stereo not drawn) | inconclusive: 0.316 µM [inhibitor, full curve, poor fit]
25 | O=C(O)c1cc2ccc(OCc3ccccc3)cc2[nH]1 | inactive
26 | CC(C)NC(=S)Nc1cccc2cnccc12 | inconclusive: 31.6 µM [inhibitor, partial curve, poor fit]
27 | CC1C(=O)N(Cc2cn(CCC3OCCO3)nn2)CCS(=O)(=O)N1Cc1ccc(-c2ccc(Cl)c(Cl)c2)cc1 (stereo not drawn) | inactive
28 | CC1=C(C(=O)N2CCOCC2)CC(CC(=O)NCc2ccco2)C(=O)N1Cc1ccccc1 (stereo not drawn) | inconclusive: 89.1 µM [inhibitor, partial curve, poor fit]
29 | O=C(OCC(=O)N1CCN(C(=O)c2ccco2)CC1)c1cc(-c2ccco2)nc2ccccc12 | active: 4.47 µM
30 | O=C(COC(=O)c1ccccc1NC(=O)c1ccco1)NC1CC1 | inconclusive: 158 µM [inhibitor, single point]
31 | c1ccc2c(-n3ccnc3)nc(-c3ccoc3)nc2c1 | inconclusive: 25.1 µM [inhibitor, partial curve, poor fit]
32 | CCC(=O)n1nc(-c2ccccc2)nc1SCC(=O)Nc1ccc(C)cc1 | inconclusive: 39.8 µM [inhibitor, partial curve, poor fit]
33 | CCOc1ccc(-c2nc(CNC(=O)Nc3ccccc3OCC)c(C)o2)cc1 | inconclusive: 89.1 µM [inhibitor, partial curve, poor fit]
34 | O=C(NCc1coc(-c2cccs2)n1)c1ccc(C(F)(F)F)cc1 | inconclusive: 44.7 µM [inhibitor, partial curve, poor fit]
35 | Cc1n[nH]c(=S)n1/N=C/c1ccc(OCc2ccc(Cl)cc2Cl)cc1 | inactive
36 | O=C(NCC(=O)N(Cc1cccs1)C(C(=O)NC1CCCCC1)c1ccncc1)c1ccco1 (stereo not drawn) | inconclusive: 79.4 µM [inhibitor, partial curve, poor fit]
37 | Cc1nc(-c2c3n(c(=O)n(CC(=O)NCc4ccccc4Cl)c2=O)CCCCC3)no1 | inactive
38 | CC(Sc1nc2ncc(Cl)cc2[nH]1)C(=O)Nc1ccccc1[N+](=O)[O-] (stereo not drawn) | inconclusive: 100 µM [inhibitor, single point]
39 | COCCCNC1=C(C#N)C(=O)NC(c2cccs2)S1 (stereo not drawn) | inconclusive: 89.1 µM [inhibitor, partial curve, poor fit]
40 | FC(F)(F)c1cc(CCN2CCNC[C@@H]2CC2CCCCC2)cc(C(F)(F)F)c1 | inconclusive: 79.4 µM [inhibitor, single point]
41 | O=C(Nc1ccc(NC(=O)c2cccs2)cc1)c1ccc2c(c1)OCO2 | inactive
42 | COc1ccc(CCNCC(O)COc2ccc(OC)cc2C(C)(C)C)cc1 (stereo not drawn) | inconclusive: 3.98 µM [inhibitor, full curve, poor fit]

Row | SMILES | Potency
43 | CCN(CC(=O)Nc1ccccc1C(F)(F)F)C(=O)CSCC(=O)Nc1cc(C)on1 | inconclusive: 3.55 µM [inhibitor, full curve, poor fit]
44 | Nc1nn(Cc2ccc(Br)cc2)cc1Br | inactive
45 | O=[N+]([O-])c1ccccc1/C=C/C=N/n1c(-c2ccco2)n[nH]c1=S | inconclusive: 39.8 µM [inhibitor, partial curve]
46 | Cc1cc(C(F)(F)F)nc(Nc2nc(C)c3ccccc3n2)n1 | inactive
47 | Nc1cccc(Nc2ccccc2)c1 | inactive and inconclusive: 56.2 µM [inhibitor, partial curve, poor fit]
48 | COc1ccc(NC(=O)c2ccccc2)cc1NS(=O)(=O)c1ccc(F)cc1 | inactive
49 | COc1ccc(CNC(=O)CN(C)Cc2ccc(C(C)(C)C)cc2)cc1 | inactive
50 | O=c1[nH]ncn1-c1ccccc1C(F)(F)F | inactive
51 | Cc1ccc(S(=O)(=O)NCCC(=O)Nc2ccc(C)cc2C(=O)c2ccccc2)cc1 | inactive
52 | CC(=O)Nc1ccc(NC(=O)C2=C(c3ccccc3)SCCO2)cc1 | inconclusive: 39.8 µM [inhibitor, partial curve, poor fit]
53 | CCc1ccc(-c2cc(C)no2)cc1S(=O)(=O)Nc1ccc(Cl)cc1 | inconclusive: 10 µM [inhibitor, full curve, poor fit]
54 | CC(=O)Nc1ccc(NC(=O)C(C)OC(=O)c2ccc3ccccc3n2)cc1 (stereo not drawn) | inconclusive: 35.5 µM [inhibitor, partial curve, poor fit]
55 | CCO[C@H]1OC(C(=O)O)=C[C@@H](c2ccccc2)[C@@H]1CCCO | inconclusive: 100 µM [inhibitor, single point]
56 | COc1ccc(C(=O)NC(=S)NNC(=O)c2c(-c3ccccc3)noc2C)cc1 | active: 35.5 µM
57 | O=C(CC1C=CCC1)N(Cc1ccco1)C1CC1 (stereo not drawn) | inactive
58 | CCOc1cc(/C=N/NC(=O)c2ccc(-c3csc(Nc4ccc(C)cc4)n3)cc2)ccc1OCC(=O)O | inconclusive: 56.2 µM [inhibitor, partial curve, poor fit]
59 | CCc1ccc([C@@H]2CC=C(C(=O)O)[C@H](c3ccc(Br)cc3)N2S(=O)(=O)c2ccc(C)cc2)cc1 | inconclusive: 50.1 µM [inhibitor, partial curve, poor fit]
60 | COCC(=O)Nc1nc(-c2ccccc2)c(C)s1 | inconclusive: 44.7 µM [inhibitor, partial curve, poor fit]
61 | CCOc1ccccc1CN(CCc1ccc2c(c1)OCO2)Cc1cccc(OC)c1OC | inconclusive: 1.41 µM [inhibitor, full curve, poor fit]
62 | COc1ccc(CNC(=O)c2nc(-c3ccccc3)oc2C)cc1OC | inconclusive: 3.55 µM [inhibitor, full curve, poor fit]
63 | CCNS(=O)(=O)O | inconclusive: 28.2 µM [inhibitor, partial curve, poor fit]
